Reference: PubChem BioAssay AID220 (DTP/NCI, 2004)
The list is a part of this screen's results and no random one: it gathers tests that were run many times, whatever their T/C, doses with no T/C, and many T/C values between a quarter and a half above the control. Further doses and runs are listed elsewhere. T/C is the treated group as % of the vehicle group. Schedule codes are those of the source, read here as Q, the interval in days (D) or hours (H), X, the number of doses. Some values lie below zero, which means that the treated tumours became smaller. Some entries were tested several times; their values stand side by side, smallest first. Some doses have a count of surviving animals in place of a T/C: the source files T/C as zero there, which appears to mark a toxic dose or a test without result, not a measured value. Survivors were counted at the toxicity check, usually on the fifth day, unless a day is given; later deaths do not show.

Test system: CD8F1 mice, subcutaneous mammary adenocarcinoma, T/C%
Assay: NCI In Vivo Anticancer Drug Screen. Data for tumor model Mammary Adenocarcinoma CD8F1 (subcutaneous) in CD8F1
Conditions: higher T/C = larger tumour
In short: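 Mice carrying transplanted tumors received test compound, and survival or tumor size was recorded. Each value is the treated-group measurement divided by the corresponding measurement in vehicle-dosed controls.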

[1] = T/C endpoint: median tumor weight change, dose: 250.0 mg/kg/injection, schedule: Q01DX001 (ip), vehicle: saline with Tween-80
[2] = T/C endpoint: median tumor weight change, dose: 500.0 mg/kg/injection, schedule: Q01DX001 (ip), vehicle: saline with Tween-80
[3] = T/C endpoint: median tumor weight change, dose: 1000.0 mg/kg/injection, schedule: Q01DX001 (ip), vehicle: saline with Tween-80

Compound: Nc1nc(=S)c2ncn(C3CC(O)C(CO)O3)c2[nH]1 (stereo unspecified)
- T/C (T/C endpoint: median tumor weight (est.), dose: 100.0 mg/kg/injection, schedule: Q07DX005 (ip), vehicle: suspension in saline, evaluated on day 30): 125 % of control
- survivor count (T/C endpoint: median tumor weight (est.), dose: 160.0 mg/kg/injection, schedule: Q07DX005 (ip), vehicle: saline with Tween-80): 1 of 10 on day 30 and 5 of 10
- survivor count (T/C endpoint: median tumor weight (est.), dose: 400.0 mg/kg/injection, schedule: Q07DX005 (ip), vehicle: suspension in saline): 6 of 10 on day 30

Compound: O=C(O)C1CSCN1 (stereo unspecified)
- survivor count (T/C endpoint: median tumor weight change, dose: 400.0 mg/kg/injection, schedule: Q01DX001 (ip), vehicle: water): 0 of 10 on day 29

Compound: O=P1(N(CCCl)CCCl)NCCCO1 (stereo unspecified)
- survivor count (T/C endpoint: mean tumor weight, dose: 80.0 mg/kg/injection, schedule: Q01DX018 (ip), vehicle: saline): 4 of 10
- survivor count (T/C endpoint: median tumor weight (est.), dose: 150.0 mg/kg/injection, schedule: Q07DX005 (ip), vehicle: saline): 1 of 10 on day 30
- survivor count (T/C endpoint: median tumor weight (est.), dose: 375.0 mg/kg/injection, schedule: Q01DX001 (ip), vehicle: saline): 3 of 10 on day 31
- T/C (T/C endpoint: median tumor weight change, dose: 167.0 mg/kg/injection, schedule: Q01DX001 (ip), vehicle: saline, evaluated on day 29): -7 % of control
- T/C (T/C endpoint: median tumor weight change, dose: 167.0 mg/kg/injection, schedule: Q01DX001 (ip), vehicle: saline, evaluated on day 30): 3 % of control
- T/C (T/C endpoint: median tumor weight change, dose: 167.0 mg/kg/injection, schedule: Q01DX001 (ip), vehicle: saline, evaluated on day 33): -67 and -61 % of control
- survivor count (T/C endpoint: median tumor weight change, dose: 167.0 mg/kg/injection, schedule: Q01DX001 (ip), vehicle: saline): 1 of 9 on day 31 and 6 of 10 on day 36
- T/C (T/C endpoint: median tumor weight change, dose: 250.0 mg/kg/injection, schedule: Q01DX001 (ip), vehicle: saline, evaluated on day 29): -54 % of control
- T/C (T/C endpoint: median tumor weight change, dose: 250.0 mg/kg/injection, schedule: Q01DX001 (ip), vehicle: saline, evaluated on day 30): -46 % of control
- T/C (T/C endpoint: median tumor weight change, dose: 250.0 mg/kg/injection, schedule: Q01DX001 (ip), vehicle: saline, evaluated on day 33): -72 and -71 % of control
- survivor count (T/C endpoint: median tumor weight change, dose: 375.0 mg/kg/injection, schedule: Q01DX001 (ip), vehicle: saline): 3 of 10 on day 30
- survivor count (T/C endpoint: median tumor weight change, dose: 400.0 mg/kg/injection, schedule: Q01DX001 (ip), vehicle: saline): 1 of 10 on day 37

Compound: OCC1OC(n2cnc3c2NC=NC[C@H]3O)CC1O (stereo partly specified)
- T/C (T/C endpoint: median tumor weight (est.), dose: 1.0 mg/kg/injection, schedule: Q07DX005 (ip), vehicle: water, evaluated on day 30): 148 % of control

Compound: C/C=C/c1cc2c(c(=O)o1)C(=O)[C@@H](O)[C@H](C)O2
- survivor count (T/C endpoint: median tumor weight (est.), dose: 400.0 mg/kg/injection, schedule: Q07DX005 (ip), vehicle: saline with Tween-80): 4 of 10 on day 30

Compound: COc1cc(Cc2nccc3cc(OC)c(OC)cc23)c(C(C)=O)cc1OC
- survivor count (T/C endpoint: median tumor weight change, dose: 250.0 mg/kg/injection, schedule: Q01DX001 (ip), vehicle: saline): 4 of 10 on day 28
- survivor count (T/C endpoint: median tumor weight change, dose: 250.0 mg/kg/injection, schedule: Q01DX001 (ip), vehicle: suspension in saline): 2 of 10 on day 31
- survivor count (T/C endpoint: median tumor weight change, dose: 500.0 mg/kg/injection, schedule: Q01DX001 (ip), vehicle: saline): 0 of 10 on day 28 and 0 of 10 on day 41
- survivor count (T/C endpoint: median tumor weight change, dose: 500.0 mg/kg/injection, schedule: Q01DX001 (ip), vehicle: suspension in saline): 0 of 10 on day 31

Compound: NC(Cc1ccc(N(CCCl)Cc2ccccc2)cc1)C(=O)O (stereo unspecified)
- survivor count (T/C endpoint: median tumor weight (est.), dose: 100.0 mg/kg/injection, schedule: Q07DX005 (ip), vehicle: distilled water + Tween-80): 2 of 10 on day 30
- survivor count (T/C endpoint: median tumor weight (est.), dose: 200.0 mg/kg/injection, schedule: Q07DX005 (ip), vehicle: distilled water + Tween-80): 0 of 10 on day 30

Compound: N=c1nc2n(cc1F)[C@@H]1O[C@H](CO)[C@@H](O)[C@@H]1O2
- T/C (T/C endpoint: median tumor weight (est.), dose: 25.0 mg/kg/injection, schedule: Q07DX005 (ip), vehicle: saline, evaluated on day 30): 129 % of control

Compound: O=C(CCl)NC(Cc1ccc(N(CCCl)CCCl)cc1)C(=O)O (stereo unspecified)
- T/C (T/C endpoint: median tumor weight (est.), dose: 2.0 mg/kg/injection, schedule: Q01DX001 (ip), vehicle: Klucel (hydroxypropylcellulose) (HPC), evaluated on day 32): 142 % of control
- T/C (T/C endpoint: median tumor weight (est.), dose: 4.0 mg/kg/injection, schedule: Q01DX001 (ip), vehicle: Klucel (hydroxypropylcellulose) (HPC), evaluated on day 30): 131 % of control
- survivor count (T/C endpoint: median tumor weight (est.), dose: 128.0 mg/kg/injection, schedule: Q01DX001 (ip), vehicle: Klucel (hydroxypropylcellulose) (HPC)): 0 of 10 on day 30 and 1 of 10 on day 32
- survivor count (T/C endpoint: median tumor weight (est.), dose: 256.0 mg/kg/injection, schedule: Q01DX001 (ip), vehicle: Klucel (hydroxypropylcellulose) (HPC)): 0 of 10 on day 30 and 0 of 10 on day 32

Compound: Cn1c(=O)[nH]c2nncnc2c1=O
- survivor count (T/C endpoint: median tumor weight change, dose: 125.0 mg/kg/injection, schedule: Q01DX001 (ip), vehicle: other): 1 of 10 on day 33
- survivor count (T/C endpoint: median tumor weight change, dose: 250.0 mg/kg/injection, schedule: Q01DX001 (ip), vehicle: other): 0 of 10 on day 33

Compound: Cc1ccc(S(=O)(=O)NC(=O)C2C(=O)CC3(CCCCC3)CC2=O)cc1
- survivor count (T/C endpoint: median tumor weight change, dose: 125.0 mg/kg/injection, schedule: Q01DX001 (ip), vehicle: Klucel (hydroxypropylcellulose) (HPC)): 5 of 10 on day 35
- survivor count (T/C endpoint: median tumor weight change, dose: 250.0 mg/kg/injection, schedule: Q01DX001 (ip), vehicle: Klucel (hydroxypropylcellulose) (HPC)): 1 of 10 on day 33 and 2 of 10 on day 35
- survivor count (T/C endpoint: median tumor weight change, dose: 500.0 mg/kg/injection, schedule: Q01DX001 (ip), vehicle: Klucel (hydroxypropylcellulose) (HPC)): 1 of 10 on day 33 and 1 of 10 on day 35
- survivor count (T/C endpoint: median tumor weight change, dose: 1000.0 mg/kg/injection, schedule: Q01DX001 (ip), vehicle: Klucel (hydroxypropylcellulose) (HPC)): 0 of 10 on day 33 and 0 of 10 on day 35
- survivor count (T/C endpoint: median tumor weight change, dose: 2000.0 mg/kg/injection, schedule: Q01DX001 (ip), vehicle: Klucel (hydroxypropylcellulose) (HPC)): 0 of 10 on day 33 and 0 of 10 on day 35

Compound: O=[N+]([O-])c1ccc(Sc2ccncn2)c([N+](=O)[O-])c1
- survivor count [1]: 4 of 10 on day 34
- survivor count [2]: 1 of 10 on day 34
- survivor count [3]: 1 of 10 on day 34

Compound: O/N=C/c1ccccc1O.O/N=C/c1ccccc1O.[Cu]
- T/C (T/C endpoint: median tumor weight change, dose: 15.6 mg/kg/injection, schedule: Q01DX001 (ip), vehicle: saline with Tween-80, evaluated on day 36): 128 % of control
- survivor count (T/C endpoint: median tumor weight change, dose: 125.0 mg/kg/injection, schedule: Q01DX001 (ip), vehicle: saline with Tween-80): 0 of 10 on day 36
- survivor count [1]: 0 of 10 on day 36

Compound: CS(=O)(=O)OCCN(CCOS(C)(=O)=O)c1ccc(C=O)cc1
- T/C (T/C endpoint: median tumor weight (est.), dose: 6.25 mg/kg/injection, schedule: Q07DX005 (ip), vehicle: saline with Tween-80, evaluated on day 30): 147 % of control
- T/C (T/C endpoint: median tumor weight (est.), dose: 25.0 mg/kg/injection, schedule: Q07DX005 (ip), vehicle: saline with Tween-80, evaluated on day 30): 132 % of control
- survivor count (T/C endpoint: median tumor weight (est.), dose: 100.0 mg/kg/injection, schedule: Q07DX005 (ip), vehicle: saline with Tween-80): 3 of 10 on day 30 and 6 of 10 on day 30
- survivor count (T/C endpoint: median tumor weight (est.), dose: 200.0 mg/kg/injection, schedule: Q07DX005 (ip), vehicle: saline with Tween-80): 0 of 10 on day 30

Compound: CC1=CC2C(O)(CC(CO)=CC3C4C(C)(C)C4(OC(=O)c4ccccc4)C(OC(=O)c4ccccc4)C(C)C32O)C1=O (stereo unspecified)
- T/C (T/C endpoint: median tumor weight change, dose: 2.5 mg/kg/injection, schedule: Q01DX001 (ip), vehicle: saline with Tween-80, evaluated on day 35): 132 % of control
- survivor count (T/C endpoint: median tumor weight change, dose: 10.0 mg/kg/injection, schedule: Q01DX001 (ip), vehicle: saline with Tween-80): 0 of 10 on day 35

Compound: CC(=O)NNC(=O)c1ccccn1
- T/C (T/C endpoint: mean tumor weight, dose: 50.0 mg/kg/injection, schedule: Q01DX009 (ip), vehicle: saline, evaluated on day 36): 145 % of control
- T/C (T/C endpoint: mean tumor weight, dose: 50.0 mg/kg/injection, schedule: Q07DX005 (ip), vehicle: saline, evaluated on day 30): 138 % of control

Compound: CNc1nc(N(C)C)nc(N(C)C)n1
- survivor count (T/C endpoint: median tumor weight (est.), dose: 37.0 mg/kg/injection, schedule: Q07DX005 (ip), vehicle: other): 6 of 10

Compound: O=S(=O)(N=N/C=C1\C=CC=CN1O)c1cccs1
- survivor count [2]: 2 of 10 on day 33
- survivor count [3]: 4 of 10 on day 33
- survivor count (T/C endpoint: median tumor weight change, dose: 2000.0 mg/kg/injection, schedule: Q01DX001 (ip), vehicle: saline with Tween-80): 1 of 10 on day 33

Compound: C[C@]12C=CC(=O)C=C1CC[C@@H]1[C@@H]2[C@@H](O)C[C@@]2(C)[C@H]1CC[C@]2(O)C(=O)CO
- survivor count (T/C endpoint: median tumor weight change, dose: 1600.0 mg/kg/injection, schedule: Q01DX001 (ip), vehicle: Klucel (hydroxypropylcellulose) (HPC)): 5 of 10 on day 30

Compound: CCC(C)Nc1ccc(N)cc1 (stereo unspecified)
- T/C (T/C endpoint: median tumor weight change, dose: 6.0 mg/kg/injection, schedule: Q01DX001 (ip), vehicle: Klucel (hydroxypropylcellulose) (HPC), evaluated on day 24): 127 % of control
